Results are given in words; binding and its absence hold for the method and conditions named. In cells and extracts the contact can be indirect. Some entries that bind do so weakly or less than the wild type.

Amino acid sequences for entries named in this document (tags omitted).
UniProt P15873: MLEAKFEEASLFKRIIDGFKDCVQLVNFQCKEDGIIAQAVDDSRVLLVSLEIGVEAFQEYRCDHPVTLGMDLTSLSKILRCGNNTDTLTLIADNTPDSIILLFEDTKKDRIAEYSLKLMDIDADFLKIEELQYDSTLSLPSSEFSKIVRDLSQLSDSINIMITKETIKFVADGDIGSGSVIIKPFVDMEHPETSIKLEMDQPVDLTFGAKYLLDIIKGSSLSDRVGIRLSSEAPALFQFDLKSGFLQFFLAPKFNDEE
UniProt P32447: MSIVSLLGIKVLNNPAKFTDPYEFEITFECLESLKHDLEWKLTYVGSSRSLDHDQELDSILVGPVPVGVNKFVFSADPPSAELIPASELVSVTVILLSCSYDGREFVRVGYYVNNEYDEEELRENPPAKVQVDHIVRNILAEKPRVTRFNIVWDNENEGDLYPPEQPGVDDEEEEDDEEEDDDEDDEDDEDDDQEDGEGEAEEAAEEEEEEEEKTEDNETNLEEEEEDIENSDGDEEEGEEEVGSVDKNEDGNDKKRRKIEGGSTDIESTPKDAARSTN

The target in one assay is PCNA (S. cerevisiae) (UniProt P15873). Kind of assay: FRET or BRET; FLIM-FRET: lifetime of GFP (donor) with an mCherry-tagged acceptor in live small-budded S. cerevisiae cells with a single nucleus; FRET efficiency from TCSPC decay histograms fitted with a double exponential function; Microtime 200 (Fig 6: Alba).
Assay [1] deals with T1, Spc29-mCherryp (S. cerevisiae) (UniProt P33419).
T1 sequence: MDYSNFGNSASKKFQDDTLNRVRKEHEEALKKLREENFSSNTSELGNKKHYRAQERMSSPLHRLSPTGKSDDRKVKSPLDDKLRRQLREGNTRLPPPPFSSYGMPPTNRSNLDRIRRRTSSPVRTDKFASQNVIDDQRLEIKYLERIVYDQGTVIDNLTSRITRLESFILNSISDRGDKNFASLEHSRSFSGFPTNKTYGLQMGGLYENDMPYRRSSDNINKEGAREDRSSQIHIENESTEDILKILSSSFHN
The assay is described as above.

Regarding Asf1-GFPp (from UniProt P32447 1-279), the binding result with PCNA (S. cerevisiae) was “binds”; in assay [1] it was “no binding”.
